Test results: patent US5266561A, “Treatment of type 2 diabetes mellitus” (Amylin Pharmaceuticals, Inc., priority 1991, dated 1993)
Entries after “also recorded” stand apart in the source; their conditions may differ. At least one peptide structure holds a part that was inferred or is arguable (an end, a ring closure or a residue). Some compounds share one wording; it may come from a single statement. Where a SMILES comes first, the peptide text is derived from it. Bridges are numbered along the chain shown (N, C = ends). Where no end group is shown, it is not given here.

What was measured:
rat soleus muscle = assay: Glycogen synthesis (14C-glucose incorporation into glycogen) in isolated rat soleus muscle strips; settings: isolated rat skeletal muscle in vitro, data not shown
[1] = Tendency to form amyloid / insoluble aggregates; type: physicochemical
rat muscle cells = assay: Amylin antagonist reduction of glycogen synthesis inhibition in rat muscle; type: cell-based; settings: for GLYCOGEN SYNTHESIS Mean Value / Rltv Insulin Resist / Rltv Antg Effect: insulin 100 μU/ml; for Rltv Antg Effect: percentage by which relative insulin resistance is reduced from amylin alone, antagonist 10,000 nmol/L
rat islet cells = assay: Glucose-stimulated insulin secretion from isolated rat islets of Langerhans; type: cell-based; settings: for INSULIN PRODUCTION Mean value / RELATIVE INSULIN SECRETION INHIBITION: glucose 10 mmol/L; for RELATIVE INSULIN SECRETION INHIBITION: reduction from control
Method: All experiments were performed by known methods used in experimental practice. See, e.g., Lacey P E, and Kostianovsky M, Method for the isolation of intact islets of Langerhans from the rat Dancreas. Diabetes 1967; 16:35-39.
Briefly, rats were killed, and islets of Langerhans were isolated from their pancreases. Experiments were performed either with freshly isolated islets or after overnight incubation of islets (23 h) in standard culture medium and conditions at 37° C. […] Incubation of islets for these experiments was carried out in standard Krebs-Heinsleit buffer, and it was verified that the addition of the 1.0 mmol/L citrate buffer had no effect on the pH of the incubation medium. Stimulation of islets was carried out at the standard stimulatory glucose concentration of 10 mmol/L.
Production of insulin is expressed as μU/islet/h. All experiments were performed with five replicates per point. The integrity of the islet response was assessed by comparing the responses after stimulation of different aliquots of islets by two and ten mmol/L glucose, respectively, and the strength of the inhibitory response was judged against that induced by 1 μg/ml (650 nmol/L) somatostatin. […] See Arimura A. Biomed res 1981; 2:233-257. […] See Petterson M, Ahren B, Bottcher G, Sundler F, Endocrinology 1986; 119:865-869.
The results are shown in TABLE 5 below and all results are expressed as ± standard error of the mean (s.e.m.). The significance of differences between the means of groups is assessed by the t-test. The result of stimulation by 10 mmol/L glucose is compared with the results of stimulation at 2 mmol/L glucose. In all other experimental conditions, the significance of the inhibitory effect is measured against the effect of 10 mmol/L glucose alone.

[2] = antagonist 10,000 nmol/L with amylin 0.2 nmol/L, Experiment #1
[3] = antagonist 10,000 nmol/L with amylin 2.0 nmol/L, Experiment #2

CC(C)C[C@H](NC(=O)[C@H](Cc1ccccc1)NC(=O)[C@H](CC(N)=O)NC(=O)[C@H](C)NC(=O)[C@H](CC(C)C)NC(=O)[C@H](CCCNC(=N)N)NC(=O)[C@H](CCC(N)=O)NC(=O)[C@@H](NC(=O)[C@H](C)NC(=O)[C@@H]1CSSC[C@H](NC(=O)[C@@H](N)CCCCN)C(=O)N[C@@H](CC(N)=O)C(=O)N[C@@H]([C@@H](C)O)C(=O)N[C@@H](C)C(=O)N[C@@H]([C@@H](C)O)C(=O)N1)[C@@H](C)O)C(=O)O [subpeptide [3]] (H-KCNTATCATQRLANFL-OH; disulfide 2-7)
activity in reducing the incorporation of radioactive glucose into glycogen (rat soleus muscle): significant activity was present; also recorded: activity in reducing the incorporation of radioactive glucose into glycogen was demonstrated

CC(C)C[C@H](NC(=O)[C@H](Cc1ccccc1)NC(=O)[C@H](CC(N)=O)NC(=O)[C@H](C)NC(=O)[C@H](CC(C)C)NC(=O)[C@H](CCCNC(=N)N)NC(=O)[C@H](CCC(N)=O)NC(=O)[C@@H](NC(=O)[C@H](C)NC(=O)[C@H](CS)NC(=O)[C@@H](NC(=O)[C@H](C)NC(=O)[C@@H](NC(=O)[C@H](CC(N)=O)NC(=O)[C@H](CS)NC(=O)[C@@H](N)CCCCN)[C@@H](C)O)[C@@H](C)O)[C@@H](C)O)C(=O)O [subpeptide [4], Amylin 1-16, reduced] (H-KCNTATCATQRLANFL-OH)
activity in reducing the incorporation of radioactive glucose into glycogen (rat soleus muscle): significant activity was present; also recorded: activity in reducing the incorporation of radioactive glucose into glycogen was demonstrated

HSSNNFGAIL [subpeptide [2]]
tendency to form amyloid [1]: amyloidogenic

KSNTATSATQRLANFL [ser^2, ser^7 amylin 1-16]
amelioration of the insulin resistance produced by amylin (inhibition of amylin effect on insulin-stimulated glycogen synthesis) (rat muscle cells; 10^-5 mol/L, amylin 2.0 and 0.2 nmol/L, insulin 100 uU/mL): moved back toward the uninhibited rate; also recorded: capable of partially ameliorating the insulin resistance produced by amylin alone
GLYCOGEN SYNTHESIS Mean Value (rat muscle cells; [2]): 2.22 µmol/h/g
Rltv Insulin Resist (rat muscle cells; [2]): 22%
GLYCOGEN SYNTHESIS Mean Value (rat muscle cells; [3]): 2.63 µmol/h/g
Rltv Insulin Resist (rat muscle cells; [3]): 20%
Rltv Antg Effect (rat muscle cells; amylin 0.2 nmol/L): 24%
Rltv Antg Effect (rat muscle cells; amylin 2.0 nmol/L): 38%
activity in reducing the incorporation of radioactive glucose into glycogen (rat soleus muscle; listed as [7]): Activity was absent; also recorded: no activity

LSSTNVGSNTY [Amylin 27-37]
INSULIN PRODUCTION Mean value (rat islet cells; 10 nmol/L): 45 μU/islet/hr
RELATIVE INSULIN SECRETION INHIBITION (rat islet cells; 10 nmol/L): 44%
INSULIN PRODUCTION Mean value (rat islet cells; 100 nmol/L): 48 μU/islet/hr
RELATIVE INSULIN SECRETION INHIBITION (rat islet cells; 100 nmol/L): 40%
INSULIN PRODUCTION Mean value (rat islet cells; 1000 nmol/L): 65 μU/islet/hr
RELATIVE INSULIN SECRETION INHIBITION (rat islet cells; 1000 nmol/L): 19%
inhibition of glucose stimulated insulin secretion from the isolated rat islet (rat islet cells; in words): potent inhibitor
activity in reducing the incorporation of radioactive glucose into glycogen (rat soleus muscle; listed as [6]): Activity was absent; also recorded: no activity
